# Measured values taken from publication doi:10.1101/2022.04.17.488518.
# No constants are given. Whether binding was seen depends on the method and setting. In cells and extracts the contact can be indirect. Some binding calls cover weakened binding; strength is not graded here. Tags and fused reporters may be left off the sequences shown.
# T1: HaloTag-fused bZIP10 (Group C bZIP) (Arabidopsis thaliana) (UniProt O22763)
# T1 sequence: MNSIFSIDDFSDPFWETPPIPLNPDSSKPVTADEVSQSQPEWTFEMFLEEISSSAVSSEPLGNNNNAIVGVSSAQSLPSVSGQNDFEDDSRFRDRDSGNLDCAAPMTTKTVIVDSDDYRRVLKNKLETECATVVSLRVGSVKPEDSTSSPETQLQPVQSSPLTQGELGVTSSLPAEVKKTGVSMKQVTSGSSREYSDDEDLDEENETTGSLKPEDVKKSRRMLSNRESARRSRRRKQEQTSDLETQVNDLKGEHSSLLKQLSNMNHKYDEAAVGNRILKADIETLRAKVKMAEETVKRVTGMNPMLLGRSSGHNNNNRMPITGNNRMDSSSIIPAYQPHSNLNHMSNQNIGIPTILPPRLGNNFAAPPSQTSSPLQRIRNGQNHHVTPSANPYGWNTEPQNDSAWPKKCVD
# T2: HaloTag-fused bZIP63 (Group C bZIP) (Arabidopsis thaliana) (UniProt B9DGI8)
# T2 sequence: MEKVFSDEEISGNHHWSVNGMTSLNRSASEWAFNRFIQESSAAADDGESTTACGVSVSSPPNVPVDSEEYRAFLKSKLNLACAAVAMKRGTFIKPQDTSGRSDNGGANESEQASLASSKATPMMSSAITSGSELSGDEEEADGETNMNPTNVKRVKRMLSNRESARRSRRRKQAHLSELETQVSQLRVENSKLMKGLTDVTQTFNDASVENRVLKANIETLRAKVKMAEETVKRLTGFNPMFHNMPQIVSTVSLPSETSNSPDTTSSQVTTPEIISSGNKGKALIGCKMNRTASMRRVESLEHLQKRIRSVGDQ
# T3: HaloTag-fused bZIP9 (Group C bZIP) (Arabidopsis thaliana), Q9FUD3
# T3 chain: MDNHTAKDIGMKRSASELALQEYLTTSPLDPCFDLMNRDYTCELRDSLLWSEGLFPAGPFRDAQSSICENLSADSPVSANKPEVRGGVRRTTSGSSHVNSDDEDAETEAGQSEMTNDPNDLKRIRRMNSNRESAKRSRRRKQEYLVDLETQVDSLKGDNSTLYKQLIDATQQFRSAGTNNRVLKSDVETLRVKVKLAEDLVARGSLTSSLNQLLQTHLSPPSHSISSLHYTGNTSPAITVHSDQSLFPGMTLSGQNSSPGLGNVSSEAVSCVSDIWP
# T4: HaloTag-fused bZIP25 (Group C bZIP) (Arabidopsis thaliana) (UniProt Q9M1G6)
# T4 sequence: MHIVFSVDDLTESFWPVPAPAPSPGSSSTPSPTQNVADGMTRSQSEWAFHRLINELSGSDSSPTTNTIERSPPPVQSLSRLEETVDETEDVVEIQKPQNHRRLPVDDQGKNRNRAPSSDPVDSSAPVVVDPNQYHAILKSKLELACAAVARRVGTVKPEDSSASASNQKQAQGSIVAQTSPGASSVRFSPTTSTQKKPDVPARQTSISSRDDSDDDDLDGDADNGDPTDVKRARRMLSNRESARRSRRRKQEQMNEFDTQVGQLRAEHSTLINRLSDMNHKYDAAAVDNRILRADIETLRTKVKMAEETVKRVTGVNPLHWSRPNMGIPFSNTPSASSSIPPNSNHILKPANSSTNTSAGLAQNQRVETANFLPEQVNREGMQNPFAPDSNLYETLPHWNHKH
# What was measured:
# Assay in all cases: pull-down
# [1] = molecular target: T1, HaloTag-fused bZIP10 (Group C bZIP) (Arabidopsis thaliana)
# [2] = molecular target: T2, HaloTag-fused bZIP63 (Group C bZIP) (Arabidopsis thaliana)
# [3] = molecular target: T3, HaloTag-fused bZIP9 (Group C bZIP) …; settings: remark: other sources report otherwise
# [4] = molecular target: T4, HaloTag-fused bZIP25 (Group C bZIP) (Arabidopsis thaliana)
Binder,binding [1],binding [2],binding [3],binding [4]
"SBPTag-fused bZIP2 (Group S1 bZIP) (protein, UniProt Q9SI15 1-171) MASSSSTYRSSSSSDGGNNNPSDSVVTVDERKRKRMLSNRESARRSRMRKQKHVDDLTAQINQLSNDNRQILNSLTVTSQLYMKIQAENSVLTAQMEELSTRLQSLNEIVDLVQSNGAGFGVDQIDGCGFDDRTVGIDGYYDDMNMMSNVNHWGGSVYTNQPIMANDINMY",binds,binds,,
"SBPTag-fused bZIP2 (Group S1 bZIP), Q9SI15 1-171 (protein) MASSSSTYRSSSSSDGGNNNPSDSVVTVDERKRKRMLSNRESARRSRMRKQKHVDDLTAQINQLSNDNRQILNSLTVTSQLYMKIQAENSVLTAQMEELSTRLQSLNEIVDLVQSNGAGFGVDQIDGCGFDDRTVGIDGYYDDMNMMSNVNHWGGSVYTNQPIMANDINMY",,,binds,
"SBPTag-fused bZIP1 (Group S1 bZIP), Q9FGX2 1-145 (protein) MANAEKTSSGSDIDEKKRKRKLSNRESARRSRLKKQKLMEDTIHEISSLERRIKENSERCRAVKQRLDSVETENAGLRSEKIWLSSYVSDLENMIATTSLTLTQSGGGDCVDDQNANAGIAVGDCRRTPWKLSCGSLQPMASFKT",,,binds,
"SBPTag-fused bZIP1 (Group S1 bZIP) (protein, UniProt Q9FGX2 1-145) MANAEKTSSGSDIDEKKRKRKLSNRESARRSRLKKQKLMEDTIHEISSLERRIKENSERCRAVKQRLDSVETENAGLRSEKIWLSSYVSDLENMIATTSLTLTQSGGGDCVDDQNANAGIAVGDCRRTPWKLSCGSLQPMASFKT",binds,binds,,

# Now from value to binder:
binding [1],binding [2],binding [3],binding [4],Binder
binds,binds,,,"SBPTag-fused bZIP11 (Group S1 bZIP) (protein, UniProt O65683 1-159) MESSSSGTTSSTIQTSSGSEESLMEQRKRKRMLSNRESARRSRMKKQKLLDDLTAQVNHLKKENTEIVTSVSITTQHYLTVEAENSVLRAQLDELNHRLQSLNDIIEFLDSSNNNNNNNMGMCSNPLVGLECDDFFVNQMNMSYIMNQPLMASSDALMY"
,,binds,,"SBPTag-fused bZIP11 (Group S1 bZIP), O65683 1-159 (protein) MESSSSGTTSSTIQTSSGSEESLMEQRKRKRMLSNRESARRSRMKKQKLLDDLTAQVNHLKKENTEIVTSVSITTQHYLTVEAENSVLRAQLDELNHRLQSLNDIIEFLDSSNNNNNNNMGMCSNPLVGLECDDFFVNQMNMSYIMNQPLMASSDALMY"
binds,binds,,binds,"SBPTag-fused bZIP53 (Group S1 bZIP) (protein, UniProt Q9LZP8 1-146) MGSLQMQTSPESDNDPRYATVTDERKRKRMISNRESARRSRMRKQKQLGDLINEVTLLKNDNAKITEQVDEASKKYIEMESKNNVLRAQASELTDRLRSLNSVLEMVEEISGQALDIPEIPESMQNPWQMPCPMQPIRASADMFDC"
,,binds,,"SBPTag-fused bZIP53 (Group S1 bZIP), Q9LZP8 1-146 (protein) MGSLQMQTSPESDNDPRYATVTDERKRKRMISNRESARRSRMRKQKQLGDLINEVTLLKNDNAKITEQVDEASKKYIEMESKNNVLRAQASELTDRLRSLNSVLEMVEEISGQALDIPEIPESMQNPWQMPCPMQPIRASADMFDC"
